Source: PubChem BioAssay AID1487 (National Center for Advancing Translational Sciences (NCATS), 2009)
The other results are listed elsewhere or left out. Further columns of the screen follow, without active or inactive calls. The list favours compounds with an active or inconclusive main result. Words in brackets tell the shape of the fitted curve; partial curves, single points and poor fits give uncertain potencies.

Assay: qHTS Assay for Modulators of Lamin A Splicing
Conditions: HeLa LMNA splicing GFP/RFP minigene ratio, 48 h
How it was run: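 S3 HeLa cells stably expressing lamin A-EGFP splicing minigene plus DsRed2, 600 cells/well, 48 h compound exposure at 37C. Laser-scanning cytometry; analysed as GFP (500-530 nm)/RFP (575-640 nm) total intensity ratio; 0.5% DMSO vehicle.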

[1] = measured here: RFP viability control channel
[2] = measured here: GFP splicing reporter channel

SMILES | AC50 [1] | AC50 [2]
Cc1cc(NC(=O)CSc2nc(-c3cccs3)cc(C(F)(F)F)n2)no1 | 2 µM [rising, full curve] | 
Clc1nnc(NN=C2CCCC2)c2ccccc12 | 2.82 µM [rising, single point] | 3.55 µM [rising, single point]
CC(C)(C=O)Cc1cc(C(C)(C)C)c(O)c(C(C)(C)C)c1 |  | 35.5 µM [falling, single point]
Oc1c(C(c2cccs2)N2CCN(c3cccc(Cl)c3)CC2)sc2ncnn12 (configuration not stated) | 10 µM [rising, partial curve] | 
CC1CCN(c2ccc(-c3cccc(NS(=O)(=O)c4ccc(Cl)s4)c3)nn2)CC1 | 10 µM [rising, partial curve, poor fit] | 
O=C(OCC(=O)N1CCN(C(=O)c2ccco2)CC1)c1ccccc1OCc1ccccc1 | 0.00447 µM [rising, full curve, poor fit] | 
Cc1ccc(C)c(N2CCN(C(=O)c3ccc(CSc4nc5ccncc5[nH]4)cc3)CC2)c1 | 11.2 µM [rising, partial curve] | 1.58 µM [rising, partial curve]
COc1ccccc1NC(=S)NCCSc1ccc(C)cc1 | 10 µM [rising, partial curve, poor fit] | 
OC1(c2cccc(C(F)(F)F)c2)CCN(c2ncnc3c2[nH]c2ccc(F)cc23)CC1 | 3.55 µM [rising, partial curve] | 35.5 µM [falling, single point]
O=C1CCCN1CC1CCCN(Cc2nc(COc3ccccc3)no2)C1 (configuration not stated) | 35.5 µM [falling, single point] | 
COc1ccc(-n2cc(-c3ccccc3)[n+]3c2CCCCC3)cc1 |  | 35.5 µM [falling, single point]
COc1ccc(C2C(C#N)=C(N)Oc3n[nH]c(C)c32)cc1CN1CCN(c2ccc(F)cc2)CC1 (configuration not stated) | 22.4 µM [falling, single point] | 35.5 µM [falling, single point]
c1ccc(-c2nc(-n3ccnc3)nc(-n3ccnc3)n2)cc1 | 22.4 µM [rising, single point] | 35.5 µM [rising, single point]
NS(=O)(=O)c1ccc(CCNC(=O)CN2CCN(c3cccc(Cl)c3)CC2)cc1 |  | 2.51 µM [falling, single point]
Clc1ncc(Cn2cccn2)s1 |  | 0.02 µM [falling, full curve, poor fit]
CCOC(=O)c1c(NC(=O)c2ccccc2Cl)sc2c1CCc1ccccc1-2 | 14.1 µM [rising, partial curve] | 7.08 µM [rising, single point]
Cc1ccc(S(=O)(=O)Nc2ccc(-c3ccc(N4CCCCCC4)nn3)cc2)cc1C | 0.00282 µM [falling, full curve] | 0.1 µM [falling, full curve]
CCOc1ccc(/C(O)=C2/C(=O)C(=O)N(c3cc(C)on3)C2c2ccc(C(=O)OC)cc2)cc1 (configuration not stated) | 31.6 µM [rising, single point] | 

Looked up by structure from the entries so far (2):
SMILES | AC50 [1] | AC50 [2]
CC1CCN(c2ccc(-c3cccc(NS(=O)(=O)c4ccc(Cl)s4)c3)nn2)CC1 | 10 µM [rising, partial curve, poor fit] | 
c1ccc(-c2nc(-n3ccnc3)nc(-n3ccnc3)n2)cc1 | 22.4 µM [rising, single point] | 35.5 µM [rising, single point]

Next part:

SMILES | AC50 [1] | AC50 [2]
CCn1c(/C=C/c2ccc([N+](=O)[O-])o2)nc2ccccc2c1=O | 4.47 µM [falling, full curve] | 5.62 µM [falling, full curve]
COc1cc(S(=O)(=O)N2CCN(C(=O)c3ccccc3F)CC2)c(OC)cc1NC(C)=O | 15.8 µM [rising, single point] | 14.1 µM [rising, single point]
Cc1ccc(N(C(=O)c2ccc(S(=O)(=O)N3CCOCC3)cc2)C2C=CS(=O)(=O)C2)cc1C (configuration not stated) |  | 0.02 µM [rising, full curve, poor fit]
O=C(C1CCCC1)N1CCN=C1SCc1cccc([N+](=O)[O-])c1 | 1.41 µM [falling, partial curve, poor fit] | 
CCOC(=O)Cc1nc(-c2ccccc2)n[nH]1 | 0.01 µM [rising, full curve, poor fit] | 
CCOC(=O)c1c(C=O)c(C)n(Cc2ccc(Cl)cc2)c1C | 35.5 µM [rising, single point] | 
CCCCN(C)C(=O)CCCCn1c(=O)[nH]c2cc(OCC)c(OCC)cc2c1=O | 0.1 µM [rising, partial curve, poor fit] | 
CCN(CC)c1ccc(NC(=O)COc2ccc(C#N)cc2)cc1S(=O)(=O)Nc1ccc(OC)cc1 | 5.62 µM [rising, full curve, poor fit] | 
COc1ccc(NC2=C(NCCO)C(=O)c3ccccc3C2=O)cc1 |  | 10 µM [rising, partial curve]
CC1CCN(C(=S)Nc2ccc3nc4n(c(=O)c3c2)CCCCC4)CC1 | 20 µM [rising, partial curve] | 
Cc1cc2c(n1-c1ccc(C(=O)NCC(C)c3ccccc3)cc1)CCCC2 (configuration not stated) | 15.8 µM [rising, single point] | 
COc1ccccc1-c1nc(NCc2cccs2)c2ccccc2n1 | 14.1 µM [falling, partial curve] | 12.6 µM [falling, partial curve]
CCn1c(C(C)NC(=O)c2ccccc2C)n[nH]c1=S (configuration not stated) | 1.26 µM [falling, partial curve] | 
CS(=O)(=O)Nc1cccc(-c2ccc3ncnc(Nc4ccc(F)cc4)c3c2)c1 | 25.1 µM [falling, partial curve] | 20 µM [falling, partial curve]
O=C(O)/C=C/C(=O)Nc1ccc(OC(F)(F)F)cc1Br |  | 31.6 µM [falling, partial curve, poor fit]
Cc1ccc(C)c(NC(=O)c2ccc(=O)n(Cc3ccc(F)cc3)c2)c1 |  | 0.708 µM [falling, full curve, poor fit]
COC(=O)c1cccc(NC(=O)Cc2nc(-c3ccccc3)sc2-c2ccc(C)cc2)c1 | 0.398 µM [rising, full curve, poor fit] | 
COCCNCCCOc1ccc(Cl)cc1Br |  | 1 µM [falling, full curve, poor fit]
